PubChem BioAssay AID652259 – Drosophila RNAi Screening Center – 2013
The screen tested about 22,000 reagents; shown is a random part of those with a known target gene and a result. Over the whole deposit, 233 (1.1%) are marked active. 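Light values are raw, unnormalised plate reads; the ratio scores behind the reporter calls were not deposited.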 Names joined by + are all predicted targets of the reagent. The record does not give: the amount of reagent, the time to read-out, the dose of the treatment.

- Aim: 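Knock-downs that push a Wingless-driven reporter up or down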 (primary screen)
- Cell system: Drosophila clone 8 imaginal disc epithelial cells
- Reagent: long dsRNA against Drosophila genes
- Challenge: pathway stimulated by co-transfected Wingless expression plasmid
- Measured: 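Firefly luciferase from a tcf-site Wingless reporter, measured alongside co-transfected Renilla luciferase that tracks transfection; pathway stimulated by a Wingless plasmid; the firefly-to-Renilla ratio is not deposited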
- Direction: firefly reporter light: higher = more Wg reporter light, before normalisation; Renilla control light: higher = more transfected or surviving cells
- Call rule: 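Strong candidates differ from their plate mean by at least two out of four per-plate statistical tests; weak candidates meet just one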
- Calls: active = candidate regulator (raises or lowers reporter); inactive = not a candidate

| predicted target | amplicon | reporter change call, replicate 1 | firefly reporter light, replicate 1 | firefly reporter light, replicate 2 | Renilla control light, replicate 1 | Renilla control light, replicate 2 | outcome |
| --- | --- | --- | --- | --- | --- | --- | --- |
| Pngl (PNGase-like) | DRSC04914 | – | 3686 | 9027 | 1315 | 3123 | inactive |
| Golgin104 (Golgin 104) | DRSC10459 | – | 3462 | – | 1528 | – | inactive |
| CG9784 | DRSC20210 | – | 18564 | – | 6901 | – | inactive |
| Drsl2 (Drosomycin-like 2) | DRSC08160 | – | 5681 | – | 3525 | – | inactive |
| Pdf (Pigment-dispersing factor) | DRSC16786 | – | 3187 | – | 759 | – | inactive |
| mspo (M-spondin) | DRSC07652 | – | 7314 | – | 2491 | – | inactive |
| CG32425 | DRSC11739 | – | 11226 | – | 2769 | – | inactive |
| CG32425 | DRSC11764 | – | 5340 | – | 2219 | – | inactive |
| CG33342 (HDC15381) | DRSC13662 | – | 2512 | – | 1307 | – | inactive |
| mys (myospheroid) | DRSC18799 | – | 11792 | – | 6953 | – | inactive |
| nej (nejire) | DRSC18006 | – | 31787 | – | 5520 | – | inactive |
| nej (nejire) | DRSC18801 | Wg reporter activity raised | 9490 | 22637 | 483 | 1296 | active |
| CG13123 | DRSC02219 | – | 1946 | 5072 | 696 | 1989 | inactive |
| CG12684 | DRSC17875 | – | 12044 | – | 6555 | – | inactive |
| ATPsynC (ATP synthase, subunit C) | DRSC15236 | – | 3233 | 5136 | 737 | 2040 | inactive |
| Lamp1 | DRSC03727 | – | 2185 | 5125 | 788 | 2021 | inactive |
| RhoGAP102A (Rho GTPase activating protein at 102A) | DRSC17110 | – | 2572 | – | 1203 | – | inactive |
| RhoGAP102A (Rho GTPase activating protein at 102A) | DRSC17145 | – | 21922 | – | 13217 | – | inactive |
| CG1416 | DRSC03706 | – | 10716 | – | 3773 | – | inactive |
| CG31926 | DRSC00295 | – | 2345 | 7011 | 1223 | 2656 | inactive |
| CG30280 | DRSC21761 | – | 3.73e5 | 5.60e5 | 1.37e5 | 1.40e5 | inactive |
| Rsf1 (Repressor splicing factor 1) | DRSC03423 | – | 5216 | 10373 | 1072 | 3730 | inactive |
| Rsf1 (Repressor splicing factor 1) | DRSC21953 | – | 4.82e5 | 5.26e5 | 1.91e5 | 2.22e5 | inactive |
| Nlg1 (Neuroligin 1) | DRSC12485 | – | 2681 | – | 1424 | – | inactive |
| Nlg1 (Neuroligin 1) | DRSC12532 | – | 6388 | – | 1853 | – | inactive |
| Nlg1 (Neuroligin 1) | DRSC12533 | – | 13457 | – | 3138 | – | inactive |
| Nlg1 (Neuroligin 1) | DRSC12539 | – | 14021 | – | 2630 | – | inactive |
| COX1 (retired record) | DRSC21275 | – | 11319 | – | 8256 | – | inactive |
| CG11158 | DRSC19389 | – | 16790 | – | 10242 | – | inactive |
| kar (karmoisin) | DRSC14496 | – | 7026 | – | 2320 | – | inactive |
| NC2beta (Negative Cofactor 2beta) | DRSC01895 | – | 23042 | – | 2134 | – | inactive |
| Amy-d (Amylase distal) | DRSC05919 | – | 7956 | – | 2716 | – | inactive |
| CG12521 | DRSC09893 | – | 7290 | – | 2405 | – | inactive |
| eff (effete) | DRSC16940 | – | 18665 | – | 3531 | – | inactive |
| CR43670 + grp + CR43671 + 1 more | DRSC03541 | – | 6873 | – | 752 | – | inactive |
| Desi (Desiccate) | DRSC14909 | – | 19925 | – | 4823 | – | inactive |
| Tsr1 (Tsr1 ribosome assembly factor) | DRSC11821 | – | 3529 | – | 690 | – | inactive |
| CG14966 | DRSC08425 | – | 7634 | – | 3269 | – | inactive |
| betaNACtes5 (Nascent-associated complex beta-subunit-like, testis 5) | DRSC19100 | – | 3276 | – | 1105 | – | inactive |
| sbm (sobremesa) | DRSC20185 | – | 17704 | – | 8982 | – | inactive |
| Vha16-3 (Vacuolar H[+] ATPase 16kD subunit 3) | DRSC10872 | – | 5933 | – | 3893 | – | inactive |
| CG16865 | DRSC01904 | – | 1719 | 4211 | 850 | 2828 | inactive |
| CG11191 | DRSC06056 | – | 7544 | – | 3334 | – | inactive |
| Ge-1 | DRSC02938 | – | 9232 | – | 1888 | – | inactive |
| CG5577 | DRSC10519 | – | 4066 | – | 1593 | – | inactive |
| CG7519 | DRSC11834 | – | 14128 | – | 4154 | – | inactive |
| Act57B (Actin 57B) | DRSC04042 | – | 9096 | – | 2836 | – | inactive |
| CG32407 | DRSC09789 | – | 1607 | 6544 | 1111 | 2919 | inactive |
| CG15071 | DRSC06504 | – | 5140 | – | 2010 | – | inactive |
| Pkg21D (Protein kinase, cGMP-dependent at 21D) | DRSC00772 | – | 5894 | – | 3260 | – | inactive |
| CG9447 | DRSC05008 | – | 1643 | 6576 | 135 | 3392 | inactive |
| CG5056 | DRSC02808 | – | 2304 | 7961 | 858 | 4332 | inactive |
| CG7011 + Prp31 | DRSC10760 | – | 8564 | – | 3539 | – | inactive |
| Skel (Skeletor) | DRSC14905 | – | 10312 | – | 2096 | – | inactive |
| Skel (Skeletor) | DRSC14906 | – | 5228 | – | 1552 | – | inactive |
| Twdlalpha (Tweedlealpha) | DRSC19914 | – | 21841 | – | 8360 | – | inactive |
| Kif3C (Kinesin family member 3C) | DRSC17209 | – | 20448 | – | 15957 | – | inactive |
| Kif3C (Kinesin family member 3C) | DRSC17210 | – | 22038 | – | 18823 | – | inactive |
| Ube3a (Ubiquitin protein ligase E3A) | DRSC10600 | – | 2936 | – | 1428 | – | inactive |
| Set2 (SET domain containing 2) | DRSC19765 | – | 1689 | 7714 | 372 | 2041 | inactive |
| CG15543 | DRSC15081 | – | 7165 | – | 2586 | – | inactive |
| Caper | DRSC02137 | – | 21415 | – | 4976 | – | inactive |
| CG42544 | DRSC12451 | – | 3036 | – | 1033 | – | inactive |
| osa | DRSC17022 | Wg reporter activity raised | 10848 | 18806 | 1412 | 1776 | active |
| CG10970 | DRSC17772 | – | 2688 | 9329 | 867 | 2740 | inactive |
| AstA (Allatostatin A) | DRSC14634 | – | 27483 | – | 20197 | – | inactive |
| CG30414 | DRSC04372 | – | 2859 | 7591 | 660 | 3330 | inactive |
| Spred (Sprouty-related protein with EVH-1 domain) | DRSC05976 | – | 17339 | – | 4406 | – | inactive |
| muskelin | DRSC07273 | – | 5219 | – | 2080 | – | inactive |
| SmydA-6 (SET and MYND domain containing, arthropod-specific, member 6) | DRSC07341 | – | 6736 | – | 1808 | – | inactive |
| Ostgamma (Oligosaccharide transferase gamma subunit) | DRSC03074 | – | 6060 | – | 3697 | – | inactive |
| Rpt5 (Regulatory particle triple-A ATPase 5) | DRSC16842 | – | 2417 | 5472 | 710 | 1381 | inactive |
| CG14854 | DRSC14978 | – | 14400 | – | 3800 | – | inactive |

Called active, of those listed so far:
| predicted target | amplicon | reporter change call, replicate 1 | firefly reporter light, replicate 1 | firefly reporter light, replicate 2 | Renilla control light, replicate 1 | Renilla control light, replicate 2 | outcome |
| --- | --- | --- | --- | --- | --- | --- | --- |
| nej (nejire) | DRSC18801 | Wg reporter activity raised | 9490 | 22637 | 483 | 1296 | active |
| osa | DRSC17022 | Wg reporter activity raised | 10848 | 18806 | 1412 | 1776 | active |
